Results from PMC7343708, “Molecular Dynamics to Elucidate the DNA-Binding Activity of AlpZ, a Member of the Gamma-Butyrolactone Receptor Family in Streptomyces ambofaciens”.
The exact form of at least one protein or probe is not confirmed. No signal at the amounts used counts as a negative. Protein sequences can lack the tags named with them.

Target: T1, AlpZ (Streptomyces ambofaciens) (UniProt Q6VMG9)
T1 sequence (looked up, limits assumed): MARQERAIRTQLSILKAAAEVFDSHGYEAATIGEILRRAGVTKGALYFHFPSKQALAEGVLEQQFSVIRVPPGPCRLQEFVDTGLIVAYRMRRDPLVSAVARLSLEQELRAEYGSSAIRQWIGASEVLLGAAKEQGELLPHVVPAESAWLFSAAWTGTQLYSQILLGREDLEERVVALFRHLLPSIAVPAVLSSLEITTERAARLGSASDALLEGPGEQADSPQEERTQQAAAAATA
Assay: switchSENSE
Details: switchSENSE: PE40 pH 7.4 (10 mM Na phosphate, 40 mM NaCl, 0.05% Tween20, 50 uM EDTA, 50 uM EGTA), 30 C, recombinant protein, label: fluorescent nanolever on the switchSENSE chip

Measured: binding result

CTCACATTGACAAACCGACTGTGCTGTTTTTTTATCAGGGATCAGCGTTCGATGCTTCCGACTAATCAGCCATATCAGCTTACGACTA / CCCTGATAAAAAAACAGCACAGTCGGTTTGTCAATGTGAG [nanoAREV dsoverhang]
no binding: extract with signaling molecule 25 ug/ml, kOFF 1.04e-2 s-1, no protein bound after 5 min | extract with signaling molecule 50 ug/ml, kOFF 1.79e-2 s-1, no protein bound after 5 min | extract with signaling molecule 0.5 mg/ml added to complex, release, kOFF 1.95e-1 s-1
